Results from patent publication US8524465B2, “Agonists of bitter taste receptors and uses thereof” (Deutsches Institut fuer Ernaehrungsforschung …, priority 2007, dated 2013).
Some results were stated once for a whole list of compounds, not compound by compound.

Target: T1, TAS2R4 (Homo sapiens, UniProt Q9NYW5)
T1 construct: expressed in transfected cells; host or cells: HEK-293T cells stably expressing the chimeric G-protein subunit Gα16gust44
T1 sequence (Q9NYW5 1-299): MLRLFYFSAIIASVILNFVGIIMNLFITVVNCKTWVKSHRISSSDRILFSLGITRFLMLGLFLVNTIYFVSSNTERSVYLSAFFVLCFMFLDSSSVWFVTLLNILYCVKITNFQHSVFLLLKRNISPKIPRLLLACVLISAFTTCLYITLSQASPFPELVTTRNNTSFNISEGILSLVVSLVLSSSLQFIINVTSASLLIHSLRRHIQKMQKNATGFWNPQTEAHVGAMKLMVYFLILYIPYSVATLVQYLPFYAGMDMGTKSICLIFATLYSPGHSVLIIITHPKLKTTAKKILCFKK
Assay: FLIPR calcium imaging, HEK-293T Gα16gust44 cells expressing TAS2R4
Assay type: cell-based
Details: high concentrations
Procedure: Tastants (Sigma-Aldrich, Taufkirchen, Germany) were dissolved and administered in the following (in mM): 130 NaCl, 5 KCl, 10 HEPES, 2 CaCl2, and 10 mM glucose, pH7.4. Data were collected from 1-2 independent experiments performed at least in triplicate and processed with SigmaPlot (SPSS, Chicago, Ill.). For dose-response curve calculation, the peak fluorescence responses after compound addition were corrected for and normalized to background fluorescence (ΔF/F=(F−F0)/F0), and baseline noise was subtracted.
All 25 human bitter taste receptors were challenged with 100 μM artemorin (FIG. 1) in a FLIPR calcium imaging experiment.

## CC[N+](CC)(CC(=O)Nc1c(C)cccc1C)Cc1ccccc1 [denatonium benzoate]
  concentration at which small responses could be detected in TAS2R4-expressing cells: ≥ 300 µM
